The source of these data is PubChem BioAssay AID2685 (National Center for Advancing Translational Sciences (NCATS), 2010).

Some of the results follow. Further columns of the screen follow, without active or inactive calls. Most of these compounds were active or inconclusive in the main read-out, so they are no random draw. Potencies come from curve fits of mixed quality, noted in brackets.

A short description of the test: qHTS Assay for Lipid Storage Modulators in Drosophila S3 Cells.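 On cell number change: cells counted by Cell Tracker Red CMTPX staining in the red channel.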 As to conditions: BODIPY lipid droplet fluorescence, 18-24 h; for cell number change: measured here: cell count max response, cells fed with added oleic acid. The procedure, abridged:
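Laser-scanning cytometry quantifies lipid droplet accumulation (500–530 nm total intensity; droplet/cell object ratio) in oleic acid-fed (400 uM added) Drosophila S3 cells treated with a concentration series. 20 uM Triacsin C defined 100% inhibition.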
(In general: Quantitative high-throughput screening tests each substance at several concentrations.)

Setting [1] is: measured here: lipid fluorescence (Fed channel) AC50, cells fed with added oleic acid.
The mark [2] stands for this setting: measured here: cell number channel AC50, cells fed with added oleic acid.

As to `CCOC(=O)[C@H]1[C@H]2COc3ccccc3[C@@H]2N2C(=O)[C@@H](CO)NC(=O)[C@@]12C`, the cell number change was -4.41%. Moreover, under setting [1], the AC50 (usually the midpoint of the concentration-response curve, whichever way the signal moves) was 2.91 µM [rising, partial curve].

Consider `Cc1cc(C(=O)NC(CC(C)C)C(=O)O)cc(C)c1[N+](=O)[O-]` (stereo not given), for which the cell number change stood at 35.5%. Besides, the AC50 under setting [2] is 16.4 µM [rising, single point]. For the same compound, the half-maximal activity concentration (AC50) under setting [1] was 0.0146 µM [falling, full curve].

Turning to `Cc1ccc(-c2nnc3ccc(SCC(=O)Nc4cc(C)on4)nn23)cc1`, the cell number change was found to be 1.9%.

`O=C(NC1CC(=O)N(c2ccccc2)C1)C1CC1` (stereo not given): the cell number change was -27.7%.

Regarding `Cc1cc(OCC(=O)NCc2cccnc2)c2c(C)c(Cc3ccccc3)c(=O)oc2c1`, the cell number change was -12.5%. Also, under setting [1], the AC50 was 29.1 µM [falling, single point].

For the compound `S=C1NCN(Cc2cccnc2)CN1`, the cell number change was 2.75%. Also, under setting [2], the AC50 was 5.17 µM [falling, single point]. Under setting [1], the AC50 was 2.31 µM [falling, partial curve, poor fit].

As to `O=C(O)CCc1ccc(-c2ccccc2)n1Cc1ccco1`, the cell number change was -12%. In addition, under setting [1], the half-maximal activity concentration (AC50) was 6.51 µM [falling, single point].

Take `O=C(CC1OC(=O)c2ccccc21)c1ccco1` (stereo not given): the cell number change was -28.5%. Besides, the half-maximal activity concentration (AC50) under setting [1] is 0.517 µM [falling, full curve].

On to `C/C(=N\NC(=O)CNC(=O)c1ccc(F)cc1)c1ccco1`, for which the cell number change was -11.3%. Also, under setting [1], the AC50 was 29.1 µM [rising, single point].

For the compound `COc1ccc(Nc2oc(COc3ccccc3F)nc2C#N)cc1`, the cell number change was -0.962%. Besides, under setting [1], the half-maximal activity concentration (AC50) is 1.16 µM [falling, single point].

For `CCN(CC(=O)NC1CCS(=O)(=O)C1)C(C)C(=O)Nc1ccc(F)cc1` (stereo not given), the cell number change was determined as 13.2%. The AC50 under setting [2] is 7.31 µM [falling, single point]. Further, under setting [1], the AC50 was 9.2 µM [rising, partial curve].

`CC(=O)c1cccc(NC(=O)COC(=O)COc2ccccc2C)c1`: the cell number change was -14.8%. In addition, under setting [1], the AC50 is 29.1 µM [falling, single point].

With `Cc1ccc(OCC(=O)n2nc(C)cc2C)c(Br)c1`, the cell number change stood at 26.1%. The AC50 under setting [1] is 0.116 µM [rising, full curve, poor fit].

Take `CCOc1ccccc1NC(=O)CC1Nc2cc(C)c(C)cc2NC1=O` (stereo not given): the cell number change is 180%. Besides, the concentration at half-maximal activity (AC50) under setting [1] is 18.4 µM [rising, partial curve].

With `CCN(CC)C(=O)Cn1cc(C(=O)C(=O)N2CCN(c3ccccc3)CC2)c2ccccc21`, the cell number change amounted to 3.24%. Besides, the concentration at half-maximal activity (AC50) under setting [1] was 29.1 µM [rising, single point].

For `Cc1cccc(N(CC(O)CON=C2c3ccccc3-c3ccccc32)S(C)(=O)=O)c1` (stereo not given), the cell number change was -62.8%. Besides, under setting [2], the half-maximal activity concentration (AC50) is 20.6 µM [falling, single point]. The half-maximal activity concentration (AC50) under setting [1] is 32.6 µM [rising, single point].

Regarding `O=C(NC1(C(F)(F)F)NC(=O)N(Cc2ccco2)C1=O)c1cccnc1` (stereo not given), the cell number change was 30.1%. Besides, the concentration at half-maximal activity (AC50) under setting [2] is 5.8 µM [rising, full curve, poor fit]. Further, the concentration at half-maximal activity (AC50) under setting [1] is 3.26 µM [falling, partial curve].

`COc1cccc([C@@H]2Oc3ccc(OC)cc3C(=O)[C@H]2OC(=O)NCc2ccc3c(c2)OCO3)c1`: the cell number change was 4.87%. Besides, under setting [2], the AC50 was 4.11 µM [rising, single point]. Moreover, under setting [1], the AC50 was 0.259 µM [rising, full curve, poor fit].

In the case of `CCc1ccc(N2CC(C(=O)Nc3nnc(CC)s3)CC2=O)cc1` (stereo not given), the cell number change was determined as 10.2%.

For `CC1C2CC(C(CN(C)C)/C2=N/O)C1(C)C` (stereo not given), the cell number change is -28.2%. Moreover, the AC50 under setting [1] is 2.91 µM [falling, full curve].

With `COc1ccc([C@H]2CC(=O)C=C(c3ccc(C)c4ccccc34)C2)cc1`, the cell number change was -14.2%. Further, the half-maximal activity concentration (AC50) under setting [1] is 1.3 µM [falling, partial curve].

Take `NNC(=O)c1[nH]c2ccccc2c1-c1ccccc1`: the cell number change was -1.73%. For the same compound, under setting [1], the AC50 is 0.00517 µM [rising, full curve, poor fit].

With `CCNC(=S)N/N=C/c1c(C)nn(-c2cccc(Cl)c2)c1Cl`, the cell number change was -19.1%. The AC50 under setting [1] is 6.51 µM [rising, single point].

With `CCn1c(CCCc2ccc(OC)c(C)c2)n[nH]c1=S`, the cell number change was 0.955%.

As to `CC1CCN(c2c(NCC3CCC(C(=O)NCc4ccc(F)cc4)CC3)c(=O)c2=O)CC1` (stereo not given), the cell number change was -1.9%.

For `COc1ccc(S(=O)(=O)Nc2cc3c4c(c2)CCC(=O)N4CCC3)cc1C`, the cell number change turned out to be 52.2%. Further, under setting [2], the AC50 was 2.91 µM [rising, partial curve].

As to `CCCN1CCN(CCCNC(=O)CN2C(=O)C(CC)Oc3ccccc32)CC1` (stereo not given), the cell number change was determined as 21.7%. The concentration at half-maximal activity (AC50) under setting [1] is 0.411 µM [falling, full curve].

Regarding `CS/C(=C\[N+](=O)[O-])Nc1ccc(F)cc1`, the cell number change was 52.8%. Besides, under setting [2], the concentration at half-maximal activity (AC50) is 29.1 µM [rising, single point]. Further, the AC50 under setting [1] was 0.517 µM [falling, full curve].

With `CC(C)c1ccccc1NC(=O)c1cccc(NC(=O)c2ccccc2)c1`, the cell number change turned out to be 40.4%. Besides, the AC50 under setting [2] was 0.82 µM [rising, full curve]. Further, the half-maximal activity concentration (AC50) under setting [1] is 5.17 µM [rising, partial curve].

Turning to `CC1Cc2cc(S(=O)(=O)CCC(=O)NCc3ccco3)ccc2N1C(=O)C1CC1` (stereo not given), the cell number change worked out at 15.3%.

Consider `CC(C)=C1C2C=CC1C(C(=O)Nc1cc(C)ccc1C)C2C(=O)O` (stereo not given), for which the cell number change turned out to be 31.3%. Moreover, the AC50 under setting [2] is 13 µM [rising, single point].

Take `CCc1nccn1CCC(=O)N1CCCC(N2CCN(c3ccccc3F)CC2)C1` (stereo not given): the cell number change is -6.93%. In addition, the concentration at half-maximal activity (AC50) under setting [1] was 29.1 µM [rising, single point].

On to `C/C=C/C=N/NC(=O)CN(c1ccc(Br)cc1)S(=O)(=O)c1ccccc1`, for which the cell number change stood at 5.14%.

As to `Cc1cccc(C)c1NC(=O)CCCSc1nnc(N)s1`, under setting [2], the AC50 was 0.13 µM [rising, full curve, poor fit].

With `CC(=O)Nc1ccc(S(=O)(=O)Nc2nccc(/C=C/c3ccccc3F)n2)cc1`, the cell number change was 1.09%. The AC50 under setting [2] was 0.291 µM [rising, partial curve].

For the compound `COc1cc(C2Nc3cc(Cl)c(S(N)(=O)=O)cc3S(=O)(=O)N2)cc(OC)c1OC` (stereo not given), the cell number change is -40.6%. The AC50 under setting [2] was 29.1 µM [falling, single point]. Besides, the AC50 under setting [1] was 1.3 µM [falling, full curve].

Take `Cc1ccc(N2C(=O)C3ON(c4ccccc4)C(CC(C)C)C3C2=O)cc1` (stereo not given): the cell number change was -9.9%. In addition, under setting [1], the concentration at half-maximal activity (AC50) was 0.0651 µM [falling, full curve, poor fit].

Turning to `COc1ccc(N2CC(C(=O)N3CCOCC3)CC2=O)cc1` (stereo not given), the cell number change was determined as 19.4%.

For the compound `O=C(NCc1ccco1)c1cc(S(=O)(=O)N2CCOCC2)ccc1Br`, the cell number change was -6.52%. The half-maximal activity concentration (AC50) under setting [2] was 7.31 µM [falling, single point].

Turning to `O=C(COc1ccccc1Cl)Nc1ccc(S(=O)(=O)Nc2ccccn2)cc1`, the cell number change is 9.01%. Besides, the AC50 under setting [1] is 1.46 µM [falling, full curve].

Consider `O=C(c1ccc(Cl)c(S(=O)(=O)N2CCCCC2)c1)N1CCCC1`, for which the cell number change was found to be 24.8%. Further, under setting [1], the half-maximal activity concentration (AC50) was 29.1 µM [rising, partial curve, poor fit].

With `CCS(=O)(=O)Nc1cccc(-c2nc3cccnc3s2)c1`, the cell number change is 22.6%. Moreover, the AC50 under setting [1] is 0.92 µM [rising, full curve].

For `CC(C)(C)C(=O)COC(=O)c1ccc2c(c1)C(=O)N(Cc1ccco1)C2=O`, the AC50 under setting [1] is 0.291 µM [falling, partial curve, poor fit].

`O=C(NC1CCS(=O)(=O)C1)C12CC3CC(CC(C3)C1)C2` (stereo not given): the cell number change is -28.2%. In addition, the AC50 under setting [1] was 11.6 µM [falling, partial curve].

Take `O=c1[nH]c2ccccc2c(O)c1-c1cc2ccccc2oc1=O`: the cell number change was -38%. Moreover, under setting [2], the concentration at half-maximal activity (AC50) is 4.11 µM [falling, full curve]. Under setting [1], the AC50 was 29.1 µM [falling, single point].

Take `COc1ccc(CNC(=O)C(=O)NCC2OCCCN2S(=O)(=O)c2cccs2)cc1` (stereo not given): the cell number change was determined as 10.2%. Moreover, the AC50 under setting [1] is 0.112 µM [rising, full curve, poor fit].

Consider `CCOc1c2ccc(C(=O)NCc3ccco3)cc2nn1CC`, for which the cell number change was 11.4%.

Turning to `C=CCC(O)(CC=C)CNC(=O)C1CCC(=O)N(CCCc2ccccc2)C1` (stereo not given), the cell number change was -3.94%. The concentration at half-maximal activity (AC50) under setting [1] was 29.1 µM [rising, single point].

Consider `CC(=O)NS(=O)(=O)c1cccnc1Nc1cccc(Cl)c1C`, for which the cell number change was -0.546%. Under setting [1], the AC50 was 0.00411 µM [rising, full curve, poor fit].

As to `COc1ccc(C)cc1NC(=O)c1cccc(C(=O)Nc2cc(C)ccc2OC)n1`, the cell number change turned out to be 4.74%.

Turning to `Cc1ccc(Oc2cc(N3CCOCC3)nc(-c3ccccc3)n2)cc1`, the AC50 under setting [1] is 32.6 µM [falling, single point].

In the case of `Cc1nn(-c2ccccc2)c(Cl)c1/C=N/Nc1ccc(Cl)c(C(=O)O)c1`, the cell number change was determined as 10.4%. In addition, under setting [2], the AC50 is 6.51 µM [rising, single point].

As for `C=C(C)c1ccccc1NC(=O)CCN1C(=O)c2ccccc2S1(=O)=O`, the cell number change is -7.69%. In addition, the concentration at half-maximal activity (AC50) under setting [1] is 29.1 µM [falling, single point].

Take `O=C(C(=O)N1CC=C(c2ccccc2)CC1)c1c[nH]c2ccccc12`: the cell number change was determined as 17.9%.

Regarding `COC(=O)C1CCN(Cc2ccc(C)cc2)CC1`, the cell number change is -24.8%. Besides, under setting [2], the AC50 is 0.651 µM [falling, full curve, poor fit]. The concentration at half-maximal activity (AC50) under setting [1] is 29.1 µM [falling, single point].

Turning to `O=C(Oc1c(Cl)cc(Cl)c2ccccc12)N1CCCC1`, the cell number change is -1.04%. Also, the half-maximal activity concentration (AC50) under setting [1] was 2.31 µM [rising, single point].

For `CCN(Cc1cc2cc(OC)ccc2[nH]c1=O)C(=O)c1ccncc1`, the cell number change came out at 11.4%. For the same compound, the AC50 under setting [2] was 0.651 µM [falling, full curve, poor fit]. The AC50 under setting [1] is 29.1 µM [rising, single point].

Turning to `O=C1NC(c2ccc(Br)cc2)Nc2sc3c(c21)CCC3` (stereo not given), the cell number change was -56%. Moreover, under setting [2], the concentration at half-maximal activity (AC50) is 25.9 µM [falling, partial curve, poor fit]. Also, under setting [1], the AC50 is 6.51 µM [rising, single point].

On to `CC(=O)c1ccc(NC(=O)CSCC(=O)Nc2ccc3ccccc3c2)cc1`, for which the concentration at half-maximal activity (AC50) under setting [1] was 2.31 µM [rising, single point].

Take `Cc1ccccc1NS(=O)(=O)c1cc2c(cc1C)NC(=O)CO2`: the cell number change is -20.2%. For the same compound, the concentration at half-maximal activity (AC50) under setting [1] was 9.2 µM [falling, partial curve].

Take `CSc1cc(-c2ccc(Cl)cc2)c(C(=O)NC(C)C)s1`: the cell number change was 19.3%. Besides, the AC50 under setting [1] was 32.6 µM [rising, single point].
